# According to the supplement of paper PMC8728848:
# The list shows a part of the results.
# Legend:
# Assay in all cases: glycan array binding signal (z-score within array); higher = stronger binding
# Conditions in all cases: glycan notation: IUPAC condensed, linker removed
# [1] = biological target: Neu5Ac(a2-6)Gal(b1-4)GlcNAc(b1-2)Man(a1-3)[Man(a1-6)]Man(b1-4)GlcNAc(b1-4)GlcNAc
# Method in brief: (§1)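 Glycan array data were curated from 3228 arrays in the Consortium for Functional Glycomics database and kept only where the protein sequence was available. Glycan names were converted to IUPAC-condensed notation, and columns mapping to the same glycan were averaged. The binding signal is a within-array Z-score, averaged across arrays of the same protein sequence at different concentrations or buffers and across linkers. Negative Z-scores can be read as non-binding.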
# [2] = biological target: Neu5Ac(a2-6)Gal(b1-4)GlcNAc(b1-2)Man(a1-3)[Neu5Ac(a2-3)Gal(b1-4)GlcNAc(b1-2)Man(a1-6)]Man(b1-4)GlcNAc(b1-4)GlcNAc
# Method in brief: as §1
# [3] = biological target: Neu5Ac(a2-6)Gal(b1-4)GlcNAc(b1-2)Man(a1-3)[Neu5Ac(a2-6)Gal(b1-4)GlcNAc(b1-2)Man(a1-6)]Man(b1-4)GlcNAc(b1-4)GlcNAc
# Method in brief: as §1
# [4] = biological target: Neu5Ac(a2-6)Gal(b1-4)GlcNAc(b1-2)Man(a1-3)[Neu5Ac(a2-6)Gal(b1-4)GlcNAc(b1-2)Man(a1-6)]Man(b1-4)GlcNAc(b1-4)[Fuc(a1-6)]GlcNAc
# Method in brief: as §1
# [5] = biological target: Neu5Ac(a2-6)Gal(b1-4)GlcNAc(b1-2)Man(a1-6)Man(b1-4)GlcNAc(b1-4)GlcNAc
# Method in brief: as §1
# [6] = biological target: Neu5Ac(a2-6)Gal(b1-4)GlcNAc(b1-2)Man(a1-6)[Gal(b1-4)GlcNAc(b1-2)Man(a1-3)]Man(b1-4)GlcNAc(b1-4)GlcNAc
# Method in brief: as §1
# [7] = biological target: Neu5Ac(a2-6)Gal(b1-4)GlcNAc(b1-2)Man(a1-6)[GlcNAc(b1-2)Man(a1-3)]Man(b1-4)GlcNAc(b1-4)GlcNAc
# Method in brief: as §1
# [8] = biological target: Neu5Ac(a2-6)Gal(b1-4)GlcNAc(b1-2)Man(a1-6)[Man(a1-3)]Man(b1-4)GlcNAc(b1-4)GlcNAc
# Method in brief: as §1
# [9] = biological target: Neu5Ac(a2-6)Gal(b1-4)GlcNAc(b1-2)[Neu5Ac(a2-6)Gal(b1-4)GlcNAc(b1-4)]Man(a1-3)[GlcNAc(b1-4)][Neu5Ac(a2-6)Gal(b1-4)GlcNAc(b1-2)[Neu5Ac(a2-6)Gal(b1-4)GlcNAc(b1-6)]Man(a1-6)]Man(b1-4)GlcNAc(b1-4)GlcNAc
# Method in brief: as §1
# [10] = biological target: Neu5Ac(a2-6)Gal(b1-4)GlcNAc(b1-2)[Neu5Ac(a2-6)Gal(b1-4)GlcNAc(b1-4)]Man(a1-3)[GlcNAc(b1-4)][Neu5Ac(a2-6)Gal(b1-4)GlcNAc(b1-4)Man(a1-6)]Man(b1-4)GlcNAc(b1-4)GlcNAc
# Method in brief: as §1
# [11] = biological target: Neu5Ac(a2-6)Gal(b1-4)GlcNAc(b1-2)[Neu5Ac(a2-6)Gal(b1-4)GlcNAc(b1-6)]Man(a1-6)[Neu5Ac(a2-6)Gal(b1-4)GlcNAc(b1-2)Man(a1-3)][GlcNAc(b1-4)]Man(b1-4)GlcNAc(b1-4)GlcNAc
# Method in brief: as §1
# [12] = biological target: Neu5Ac(a2-6)Gal(b1-4)GlcNAc(b1-3)Gal(b1-3)GlcNAc
# Method in brief: as §1
# [13] = biological target: Neu5Ac(a2-6)Gal(b1-4)GlcNAc(b1-3)Gal(b1-4)GlcNAc
# Method in brief: as §1
# [14] = biological target: Neu5Ac(a2-6)Gal(b1-4)GlcNAc(b1-3)Gal(b1-4)GlcNAc(b1-2)Man(a1-3)[Neu5Ac(a2-6)Gal(b1-4)GlcNAc(b1-3)Gal(b1-4)GlcNAc(b1-2)Man(a1-6)]GalNAc
# Method in brief: as §1
# [15] = biological target: Neu5Ac(a2-6)Gal(b1-4)GlcNAc(b1-3)Gal(b1-4)GlcNAc(b1-3)Gal(b1-4)GlcNAc
# Method in brief: as §1
# [16] = biological target: Neu5Ac(a2-6)Gal(b1-4)GlcNAc(b1-3)Gal(b1-4)GlcNAc(b1-3)Gal(b1-4)GlcNAc(b1-2)Man(a1-3)[Neu5Ac(a2-6)Gal(b1-4)GlcNAc(b1-3)Gal(b1-4)GlcNAc(b1-3)Gal(b1-4)GlcNAc(b1-2)Man(a1-6)]GalNAc
# Method in brief: as §1
# [17] = biological target: Neu5Ac(a2-6)Gal(b1-4)GlcNAc(b1-3)Gal(b1-4)GlcNAc(b1-3)GalNAc
# Method in brief: as §1
# [18] = biological target: Neu5Ac(a2-6)Gal(b1-4)GlcNAc(b1-3)Gal(b1-4)GlcNAc(b1-3)[Neu5Ac(a2-6)Gal(b1-4)GlcNAc(b1-3)Gal(b1-4)GlcNAc(b1-6)]GalNAc
# Method in brief: as §1
# [19] = biological target: Neu5Ac(a2-6)Gal(b1-4)GlcNAc(b1-3)Gal(b1-4)GlcNAc(b1-6)[Gal(b1-3)]GalNAc
# Method in brief: as §1
# [20] = biological target: Neu5Ac(a2-6)Gal(b1-4)GlcNAc(b1-3)Gal(b1-4)[Fuc(a1-3)]GlcNAc(b1-3)Gal(b1-4)[Fuc(a1-3)]GlcNAc
# Method in brief: as §1
# [21] = biological target: Neu5Ac(a2-6)Gal(b1-4)GlcNAc(b1-3)GalNAc
# Method in brief: as §1
# [22] = biological target: Neu5Ac(a2-6)Gal(b1-4)GlcNAc(b1-3)[Neu5Ac(a2-6)Gal(b1-4)GlcNAc(b1-6)]GalNAc
# Method in brief: as §1
# [23] = biological target: Neu5Ac(a2-6)Gal(b1-4)GlcNAc(b1-6)GalNAc
# Method in brief: as §1
# [24] = biological target: Neu5Ac(a2-6)Gal(b1-4)GlcNAc(b1-6)[Gal(b1-3)GlcNAc(b1-3)]Gal(b1-4)Glc
# Method in brief: as §1
# [25] = biological target: Neu5Ac(a2-6)Gal(b1-4)GlcNAc(b1-6)[Gal(b1-3)]GalNAc
# Method in brief: as §1
# [26] = biological target: Neu5Ac(a2-6)Gal(b1-4)GlcNAc6S
# Method in brief: as §1
# Neu5Ac(a2-6)GalNAc = biological target: Neu5Ac(a2-6)GalNAc
# Method in brief: as §1
# [27] = biological target: Neu5Ac(a2-6)GalNAc(b1-4)GlcNAc
# Method in brief: as §1
# [28] = biological target: Neu5Ac(a2-6)GalNAc(b1-4)GlcNAc6S
# Method in brief: as §1
# [29] = biological target: Neu5Ac(a2-6)GlcNAc(b1-4)GlcNAc
# Method in brief: as §1
# [30] = biological target: Neu5Ac(a2-6)GlcNAc(b1-4)GlcNAc(b1-4)GlcNAc
# Method in brief: as §1
binder,measurement,setting,value
Aap brpt (Staphylococcus epidermidis) (protein) VDGDPITSTEEIPFDKKREFDPNLAPGTEKVVQKGEPGTKTITTPTTKNPLTGEKVGEGEPTEKITKQPVDEIVHYGGEEIKTGHKDEFDPNAPKGSQTTQPGKPGVKNPDTGEVVTPPVDDVTKYGPVDGDPITSTEEIPFDKKREFDPNLAPGTEKVVQKGEPGTKTITTPTTKNPLTGEKVGEGEPTEKITKQPVDEIVHYGGEEIKPGHKDEFDPNAPKGSQEDVPGKPGVKNPDTGEVVTPPVDDVTKYGPVDGDSITSTEEIPFDKKREFDPNLAPGTEKVVQKGEPGTKTITTPTTKNPLTGEKVGEGEPTEKITKQPVDEIVHYGGEQIPQGHKDEFDPNAPVDSKTEVPGKPGVKNPDTGEVVTPPVDDVTKYGPVDGDSITSTEEIPFDKKREFDPNLAPGTEKVVQKGEPGTKTITTPTTKNPLTGEKVGEGKSTEKVTKQPVDEIVEYGPTK,glycan array binding signal (z-score),[1],-0.756
same,glycan array binding signal (z-score),[2],-0.038
same,glycan array binding signal (z-score),[3],-1.33
same,glycan array binding signal (z-score),[4],1.38
same,glycan array binding signal (z-score),[5],-0.15
same,glycan array binding signal (z-score),[6],0.913
same,glycan array binding signal (z-score),[7],-0.277
same,glycan array binding signal (z-score),[8],-0.164
same,glycan array binding signal (z-score),[9],-0.052
same,glycan array binding signal (z-score),[10],-1.33
same,glycan array binding signal (z-score),[11],-0.013
same,glycan array binding signal (z-score),[12],-0.549
same,glycan array binding signal (z-score),[13],-0.137
same,glycan array binding signal (z-score),[14],-0.165
same,glycan array binding signal (z-score),[15],0.025
same,glycan array binding signal (z-score),[16],0.366
same,glycan array binding signal (z-score),[17],-0.611
same,glycan array binding signal (z-score),[18],2.85
same,glycan array binding signal (z-score),[19],2.73
same,glycan array binding signal (z-score),[20],-0.198
same,glycan array binding signal (z-score),[21],-1.43
same,glycan array binding signal (z-score),[22],-0.098
same,glycan array binding signal (z-score),[23],-0.589
same,glycan array binding signal (z-score),[24],0.258
same,glycan array binding signal (z-score),[25],0.617
same,glycan array binding signal (z-score),[26],-2.06
same,glycan array binding signal (z-score),Neu5Ac(a2-6)GalNAc,1.84
same,glycan array binding signal (z-score),[27],0.115
same,glycan array binding signal (z-score),[28],-0.313
same,glycan array binding signal (z-score),[29],2.43
same,glycan array binding signal (z-score),[30],0.439
